# From PubChem BioAssay AID504467 (National Center for Advancing Translational Sciences (NCATS), 2011)
# Values joined by “and” are separate entries in the source; they are usually repeats but may differ in a detail not shown here. Equal values may be shown once. In all, about 330,000 compounds went through this assay and about 7,700 (2.3%) were called active. The shares of active, inactive and inconclusive entries below differ from those in the screen. The call rests on the fitted dose curve; in most records, active means well fitted inhibition curve with a large enough effect; inconclusive means small, poorly fitted or top-dose-only effect, or effect the other way; inactive means flat fitted curve, though single readings scatter. Potencies of inconclusive entries are doubtful fits and often do not repeat.
# Assay: qHTS screen for small molecules that inhibit ELG1-dependent DNA repair in human embryonic kidney (HEK293T) cells expressing luciferase-tagged ELG1; further: nearly all actives have a fitted effect of over 55% in size
# Details: HEK293T ELG1-luciferase reporter, luminescence, 16 h, DNA damage induced by 5-fluorouridine; series mostly up to 46.1 µM
# Summary of the method: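 5-Fluorouridine DNA damage + compound/DMSO, 2,000 cells/well, 16 h, 37 °C/5% CO2. ONE-Glo, 30 min RT, luminescence. Readout = decrease in reporter signal.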
# Potency means the concentration at half of the fitted maximal effect.
row,SMILES,Potency
1,CN(Cc1ccccc1)C(=O)c1cccc(NC(=O)C2CCCN(C(=O)OC(C)(C)C)C2)c1 (centres undefined),active: 25.9 µM
2,CCc1cc2c(COC(=O)c3cccc(S(C)(=O)=O)c3)cc(=O)oc2cc1O,"inconclusive: 18.3 µM [inhibitor, single point]"
3,CCOC(=O)c1cccc(NC(=O)Nc2ccc3c(c2)C(=O)OC3)c1,"inconclusive: 29.1 µM [activator, single point]"
4,CCOC(=O)N1CCN(C(=O)CSc2nc3c(cnn3-c3ccc(C)cc3)c(=O)[nH]2)CC1,"inconclusive: 18.3 µM [inhibitor, single point]"
5,CCCCCc1cc(=O)oc2c(C(CCN3CCCC3)c3cc(OC)c(OC)c(OC)c3)c(OC)cc(OC)c12 (centres undefined),inactive
6,CCC(=O)NC(c1cc(Cl)c2cccnc2c1O)C(C)C (centres undefined),active: 8.2 µM
7,COc1ccc2ncc(S(=O)(=O)c3ccccc3)c(N3CCN(c4ccccc4)CC3)c2c1,active: 16.4 µM
8,COc1cccc(-c2cc(C(=O)N3CCc4ccccc4C3)no2)c1,"inconclusive: 14.6 µM [activator, partial curve, poor fit]"
9,O=C1c2ccccc2C(=O)N1CCc1nc(-c2ccc(Cl)cc2)no1,inactive
10,O=C(CSc1ncnc2ccccc12)NC1CCS(=O)(=O)C1 (centres undefined),"inconclusive: 0.0065 µM [inhibitor, full curve, poor fit]"
11,c1coc(Cn2c(SCc3nc4ccccc4[nH]3)nnc2-c2cnccn2)c1,"inconclusive: 12.6 µM [inhibitor, partial curve, poor fit]"
12,CC(C)n1c(SCC(=O)Nc2nncs2)nnc1-c1ccco1,inactive
13,Cc1ccc(C(=O)c2c3ccc(C(F)(F)F)cc3[n+]([O-])n2CCCC(N)=O)cc1,inactive
14,O=C(O)C(=O)/C(=C\c1ccsc1)c1ccc2ccccc2n1,"inconclusive: 14.6 µM [activator, partial curve]"
15,O=C(CCC1CCCC1)N1CCN(S(=O)(=O)Cc2ccccc2)CC1,"inconclusive: 10.3 µM [inhibitor, partial curve]"
16,CSc1ccc(-c2nc(CN(C)C3CCOC3)c(C)o2)cc1 (centres undefined),"inconclusive: 20.6 µM [activator, single point]"
17,CCOC(=O)C1=C(C)N(c2ccc(C)c(C)c2)C(=O)/C1=C\c1ccco1,inactive
18,O=C(CSc1n[nH]c(-c2ccncc2)n1)Nc1ccc(Cl)c(C(=O)O)c1,"inconclusive: 16.4 µM [activator, partial curve, poor fit]"
19,Cc1ccc(CN(C(=O)Cn2nnc3ccccc32)C(C(=O)NCc2ccco2)c2cccs2)cc1 (centres undefined),"inconclusive: 35.5 µM [inhibitor, single point]"
20,COc1cc(OC)cc(-n2nnnc2SCC(=O)Nc2ccc(C(C)=O)cc2)c1,inactive
21,Cc1ccc(CSc2ncnc3c2cnn3-c2ccc(C)cc2)cc1,"inconclusive: 10.3 µM [activator, partial curve]"
22,C[C@H](CO)N1C[C@H](C)[C@@H](CN(C)S(=O)(=O)c2cccs2)Oc2c(NS(=O)(=O)c3cn(C)cn3)cccc2C1=O,"inconclusive: 29.1 µM [activator, single point]"
23,CC(=O)Nc1cccc(NC(=O)CSc2nc(=O)n3cccc(C)c3n2)c1,inactive

# No new results follow: entries from further up.
row,SMILES,Potency
15,O=C(CCC1CCCC1)N1CCN(S(=O)(=O)Cc2ccccc2)CC1,"inconclusive: 10.3 µM [inhibitor, partial curve]"
16,CSc1ccc(-c2nc(CN(C)C3CCOC3)c(C)o2)cc1 (centres undefined),"inconclusive: 20.6 µM [activator, single point]"

# Next part

row,SMILES,Potency
1,Oc1ccc(-c2csc(-c3c[nH]c4ccccc34)n2)c(O)c1,"inconclusive: 2.91 µM [activator, full curve]"
2,O=C(NCc1ccc2c(c1)OCO2)C1CCC(CNc2c(N3CCCCC3)c(=O)c2=O)CC1 (centres undefined),"inconclusive: 14.6 µM [inhibitor, partial curve, poor fit]"
3,Cn1c(SCC(=O)N2CCCC2)nc2ccccc21,inactive
4,Cc1c(C(=O)N(C)C(C)c2ccccn2)oc2c(F)cccc12 (centres undefined),"inconclusive: 10.3 µM [activator, partial curve]"
5,N#C/C(=C\c1ccc(O)c([N+](=O)[O-])c1)C(=O)NCc1ccccc1,"inconclusive: 16.4 µM [inhibitor, partial curve]"
6,S=C1NC(c2ccccc2)=NCN1c1ccc(Br)cc1,"inconclusive: 18.4 µM [activator, partial curve, poor fit]"
7,CCOc1ccc(NC(=S)N(CCN2CCOCC2)Cc2ccc3c(c2)CCCN3CC)cc1,"inconclusive: 20.6 µM [inhibitor, single point]"
8,O=C(C1CC(c2ccccc2O)=NO1)N1CCc2ccccc2C1 (centres undefined),"inconclusive: 23.1 µM [activator, single point]"
9,Oc1ccc2ccccc2c1N=Nc1ccccn1,"inconclusive: 0.731 µM [inhibitor, single point]"
10,Cc1nc2ccccc2nc(=O)c1NNc1ccccc1,"inconclusive: 4.61 µM [activator, full curve] and inconclusive: 1.83 µM [activator, partial curve, poor fit]"
11,COc1ccc(OC(C)C(=O)Nc2ccc([N+](=O)[O-])cc2)cc1 (centres undefined),"inconclusive: 16.4 µM [inhibitor, single point]"
12,O=C(CCN1C(=O)C2CCCCC2C1=O)N1CCN(S(=O)(=O)c2c(F)cccc2F)CC1 (centres undefined),inactive
13,COc1ccc(Cn2c(O)c(C=Nc3ccccc3C(=O)O)c3ccccc3c2=O)cc1,active: 4.11 µM
14,Cc1cc(C(=O)Nc2ccccc2)oc(=O)c1,"inconclusive: 23.1 µM [activator, partial curve]"
15,Cc1ccc(C(=O)C(C)OC(=O)CN2C(=O)NC3(CCCC3)C2=O)cc1C (centres undefined),"inconclusive: 29.1 µM [activator, single point]"
16,CCOC(=O)c1nn(-c2cccc(OC)c2)c2nc(Nc3ccccc3)cc(=O)n12,"inconclusive: 23.1 µM [inhibitor, single point]"
17,O=C(ONc1ccc(N=NC(=O)c2ccccc2O)cc1)c1ccccc1,"inconclusive: 14.6 µM [activator, partial curve]"
18,O=C(O)c1ccccc1C(=O)N1CCN(Cc2ccc3c(c2)OCO3)CC1,inactive
19,C=CCN1C(=O)/C(=C\c2ccc(Cl)cc2)N=C1SCC(=O)NC1CCCCC1,inactive
20,Cn1c(SCC(=O)c2ccc(F)cc2)nnc1-c1cnccn1,"inconclusive: 18.4 µM [activator, partial curve]"
21,NN1C(=O)/C(=C2/Sc3ccccc3N2CCCS(=O)(=O)O)SC1=S,inactive
22,c1ccc2c(N3CCCCC3)ncnc2c1,"inconclusive: 9.2 µM [inhibitor, partial curve, poor fit]"
23,Cc1cc2c(c(SCC(=O)Nc3ccc(C)c(C)c3)n1)C(=O)OC2,inactive

row,SMILES,Potency
1,O=C(NCc1cccnc1)c1ccc(NC(=O)c2cccc([N+](=O)[O-])c2)cc1,inactive
2,CCOc1ccc(-c2cc(C)n3nc(C(N)=O)cc3n2)cc1,"inconclusive: 18.4 µM [inhibitor, partial curve]"
3,CC(C)(C)NC(=O)C(c1ccc(-c2ccccc2)cc1)N(C[C@H]1CC[C@@H]([C@@H]2CC[C@H](CO)O2)O1)C(=O)c1ccc(C(C)(C)C)cc1 (some centres undefined),"inconclusive: 29.1 µM [inhibitor, single point]"
4,O=C(COc1ccc(Cl)cc1)N1CCN(C(=O)c2cccs2)CC1,inactive
5,COc1cccc(C(=O)CC(=O)C(=O)Nc2ccc(C)cc2Cl)c1,inactive
6,CCOC(=O)c1cn2c(C)cccc2n1,inactive
7,CC1CCN(c2c(NCC3CCC(C(=O)N4CCCCC4)CC3)c(=O)c2=O)CC1 (centres undefined),"inconclusive: 18.4 µM [inhibitor, partial curve, poor fit]"
8,CSc1ccc(CN(C)C(=O)CCNS(=O)(=O)c2ccc(C)c(C)c2)cc1,"inconclusive: 29.1 µM [inhibitor, single point]"
9,COC(=O)c1ccc(-c2c(-c3ccccc3)ncc3cc(OC)c(OC)cc23)cc1,"inconclusive: 11.6 µM [inhibitor, partial curve]"
10,CNC(=O)c1[nH]cnc1C(=O)N[C@@H](C)C(=O)OCc1ccccc1,"inconclusive: 20.6 µM [activator, single point]"
11,CS(=O)(=O)N(CC(=O)N1CCOCC1)c1cc(Cl)ccc1Cl,"inconclusive: 0.259 µM [inhibitor, partial curve, poor fit]"
12,Cc1ccc(C(=O)N/N=c2\sc3ccccc3n2C)cc1,"inconclusive: 29.1 µM [activator, single point]"
13,CC12Cc3ccc4ccccc4c3C=C1C[N+](C)(C)C2 (centres undefined),inactive
14,Cc1cccc(N2CCN(C(=O)COc3ccc4c(c3)CCC4)CC2C)c1 (centres undefined),inactive
15,COc1ccc(CN(C)Cc2c(O)ccc3ccccc23)cc1,inactive
16,Cc1ccc(COc2ccccc2-c2cc(C(=O)N/N=C/c3cccnc3)[nH]n2)cc1,active: 23.1 µM
17,O=C1CC(Sc2nnnn2C2CCCCC2)C(=O)N1c1ccccc1 (centres undefined),inactive
18,COc1cc(C(=O)NCCCc2nc3ccccc3n2Cc2cc(C)ccc2C)cc(OC)c1OC,"inconclusive: 32.6 µM [inhibitor, single point]"
19,Cc1csc(=O)n1CC(=O)Nc1ccc(C(C)C)cc1,"inconclusive: 25.9 µM [activator, single point]"
20,COc1ccc(/C=C(\NC(=O)c2ccc(C)cc2)C(=O)NCCCn2ccnc2)cc1,inactive
21,CCOc1ccc(NC(=O)CN(C)C(=O)CC2OC(=O)c3ccccc32)cc1OCC (centres undefined),inactive
22,O=C(C1CCCN(S(=O)(=O)c2ccccc2)C1)N1CCN(c2ncccn2)CC1 (centres undefined),"inconclusive: 18.4 µM [inhibitor, partial curve, poor fit]"
23,COc1ccc(/C=C(\NC(=O)c2ccccc2)C(=O)NCC2CCCO2)cc1 (centres undefined),"inconclusive: 29.1 µM [activator, single point]"

# 2 entries from above, with bars between the fields:
row | SMILES | Potency
13 | CC12Cc3ccc4ccccc4c3C=C1C[N+](C)(C)C2 (centres undefined) | inactive
18 | COc1cc(C(=O)NCCCc2nc3ccccc3n2Cc2cc(C)ccc2C)cc(OC)c1OC | inconclusive: 32.6 µM [inhibitor, single point]
